Measurements reported in PubChem BioAssay AID1224830 (NIAID, 2016).

Purpose: 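Regulators of TLR4 signalling towards TNF-alpha in macrophage-like cells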 (primary screen)
System: human THP-1 monocytic leukaemia cells, TNF dual-luciferase reporter clone, PMA-differentiated to macrophage-like cells
Knock-down reagent: siRNA pool against human genes, 50 nM
Time to read-out: LPS for 4 h, given about 3 days after siRNA transfection
Treatment: bacterial LPS (TLR4 ligand), 10 ng/ml
Detection: 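TNF firefly reporter luminescence divided by renilla, normalised to the plate median, then turned into a robust z-score for each replicate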
Scale: TNF reporter robust z-score: higher = stronger TNF reporter response to LPS
Active means: 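Each well counts as active if its z-score is over 2.8 or under -1.5; controls are left without a call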
This is an unselected part of about 18,000 deposited reagents. About 2,900 of all reagents (16%) count as active. 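Calls are made per well; low scores hint the gene aids the LPS response, high scores that it dampens it.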 Repeated entries: four replicate wells of each siRNA pool.

gene symbol	TNF reporter robust z-score	activity call
FCGR3A (Fc gamma receptor IIIa)	1.53	inactive
FCGR3A (Fc gamma receptor IIIa)	2.71	inactive
FCGR3A (Fc gamma receptor IIIa)	1.74	inactive
FCGR3A (Fc gamma receptor IIIa)	4.34	active
POLR2K (RNA polymerase II, I and III subunit K)	0	inactive
POLR2K (RNA polymerase II, I and III subunit K)	0.06	inactive
POLR2K (RNA polymerase II, I and III subunit K)	-0.2	inactive
POLR2K (RNA polymerase II, I and III subunit K)	-0.35	inactive
RPS3A (ribosomal protein S3A)	0.29	inactive
RPS3A (ribosomal protein S3A)	-0.72	inactive
RPS3A (ribosomal protein S3A)	0.43	inactive
RPS3A (ribosomal protein S3A)	1.11	inactive
PFDN1 (prefoldin subunit 1)	-1.08	inactive
PFDN1 (prefoldin subunit 1)	0.22	inactive
PFDN1 (prefoldin subunit 1)	-0.4	inactive
PFDN1 (prefoldin subunit 1)	0.52	inactive
PRG3 (proteoglycan 3, pro eosinophil major basic protein 2)	1.76	inactive
PRG3 (proteoglycan 3, pro eosinophil major basic protein 2)	0.37	inactive
PRG3 (proteoglycan 3, pro eosinophil major basic protein 2)	0.7	inactive
PRG3 (proteoglycan 3, pro eosinophil major basic protein 2)	0.12	inactive
GPATCH1 (G-patch domain containing 1)	-0.05	inactive
GPATCH1 (G-patch domain containing 1)	-0.12	inactive
GPATCH1 (G-patch domain containing 1)	1.24	inactive
GPATCH1 (G-patch domain containing 1)	0.76	inactive
UBQLNL (ubiquilin like)	0.67	inactive
UBQLNL (ubiquilin like)	0.28	inactive
UBQLNL (ubiquilin like)	0.29	inactive
UBQLNL (ubiquilin like)	0.34	inactive
KIFC2 (kinesin family member C2)	0.34	inactive
KIFC2 (kinesin family member C2)	0.61	inactive
KIFC2 (kinesin family member C2)	0.73	inactive
KIFC2 (kinesin family member C2)	3.13	active
NCKIPSD (NCK interacting protein with SH3 domain)	0.04	inactive
NCKIPSD (NCK interacting protein with SH3 domain)	0.52	inactive
NCKIPSD (NCK interacting protein with SH3 domain)	0.35	inactive
NCKIPSD (NCK interacting protein with SH3 domain)	0.42	inactive
PLEKHO2 (pleckstrin homology domain containing O2)	-1.74	active
PLEKHO2 (pleckstrin homology domain containing O2)	-0.58	inactive
PLEKHO2 (pleckstrin homology domain containing O2)	-1.23	inactive
PLEKHO2 (pleckstrin homology domain containing O2)	-1.24	inactive
PRPS1 (phosphoribosyl pyrophosphate synthetase 1)	-0.81	inactive
PRPS1 (phosphoribosyl pyrophosphate synthetase 1)	-1.54	active
PRPS1 (phosphoribosyl pyrophosphate synthetase 1)	-0.27	inactive
PRPS1 (phosphoribosyl pyrophosphate synthetase 1)	-0.94	inactive
TNFRSF10C (TNF receptor superfamily member 10c)	0.05	inactive
TNFRSF10C (TNF receptor superfamily member 10c)	-0.87	inactive
TNFRSF10C (TNF receptor superfamily member 10c)	-1.11	inactive
TNFRSF10C (TNF receptor superfamily member 10c)	0.23	inactive
